# Hit rate of the full screen: of about 360,000 compounds, about 780 (0.22%) were called active. The shares of active, inactive and inconclusive entries below differ from those in the screen. Rule as the data show it: active = inhibition above about 35% (passing the limit was not always enough); inconclusive = no clear call, values can overlap the other calls.
# System: Botulinum neurotoxin type F light chain protease (Clostridium botulinum)
# Test: BoNT/F light chain protease inhibitors, primary screen, biochemical, flow cytometry, MLPCN library (AID 588497); also: plate controls were buffer without enzyme for full effect and enzyme alone for no effect
# Details: Multiplex microsphere protease cleavage assay, at 10 µM, stronger effect = higher value
row,SMILES,inhibition
1,CCCCCn1c(=O)c(C(=O)OCC)c(O)c2ccccc21,inconclusive: -0.7%
2,CC(CCc1ccccc1)NC(=O)c1ccccc1F (stereo not drawn),inconclusive: -10.7%
3,COc1ccc(-c2cn3c(C)c(C(=O)Nc4ccncc4)sc3n2)cc1,inactive: -4.7%
4,COc1ccc(-c2cn3cc(C)ccc3n2)cc1F,inactive: -0.9%
5,Cc1ccc(OCC(=O)O/N=C(\N)c2ccccn2)cc1C,inconclusive: 37.7%
6,CCOC(=O)C(C)Sc1nnc2c3ccccc3n(C)c2n1 (stereo not drawn),inconclusive: -29.5%
7,Cc1cc(/C=C2\C(=N)N3N=C(C(C)C)SC3=NC2=O)c(C)n1Cc1ccccc1,inconclusive: 25.4%
8,Cc1cc(C2C(C#N)=C(N)SC(N)=C2C#N)c(C)s1,active: 39.6%
9,C=CCCC(=O)N1CCCC(C(=O)c2cccc(OC)c2)C1 (stereo not drawn),inconclusive: -14.3%
10,O=C(NC1CC1)c1[nH]c(C(F)(F)F)nc1-c1ccccc1,inactive: -1.9%
11,CCOC(=O)c1oc2ccc(OC)cc2c1NC(=O)CN1CCN(C)CC1,inactive: -1%
12,CCC(=O)/C=C1\Sc2ccc(OC)cc2N1CC,inconclusive: 19.2%
13,CN(CC(=O)Nc1ccc(F)cc1)C(=O)c1cc([N+](=O)[O-])ccc1N1CCOCC1,inconclusive: -2.4%
14,COc1ccc(Cn2cc([N+](=O)[O-])nc2C)cc1[N+](=O)[O-],inconclusive: -212%
15,CC1(C(=O)N2CCOCC2)CCCCC1,inconclusive: -20.2%
16,COCCCNC(=S)N(CCO)Cc1cc2cc3c(cc2[nH]c1=O)OCCO3,inconclusive: -20.8%
17,Cc1ccc(CNC(=O)c2c(-c3ccccc3)noc2C)cc1,inconclusive: -0.1%
18,COc1ccccc1CNC(=O)Cc1ccccc1,inconclusive: 17.6%
19,CCOC(=O)c1nn(-c2ccccc2)cc1O,inconclusive: 11%
20,Cc1cccc(C(=O)n2c(=S)nc3cc(C)ccn32)c1,inconclusive: 8%
21,COc1cc(CN2CCN(S(=O)(=O)c3ccccc3)CC2)cc(OC)c1OC,inconclusive: 11.2%
22,COc1ccc(Cl)cc1C(=O)Nc1cccnc1,inconclusive: 26.9%
23,CCc1nc2c(OCc3ccccc3C)cccn2c1N(C)C(=O)C(C)C,inactive: 2%
24,Cn1c(=O)c2cc(NC(=O)NCCc3ccccc3)ccc2n1Cc1ccc(F)cc1,inactive: 0.9%

row,SMILES,inhibition
1,Cc1ccc(C(=O)NCc2ccc3c(c2)CCO3)cc1C,inconclusive: 32.3%
2,CCN(CC)CCC(=O)Nc1cccc2c1C(=O)c1ccccc1C2=O,inconclusive: -73%
3,c1ccc2oc(N3CCNCC3)nc2c1,inconclusive: -28%
4,CC[C@@H]1C=C(C(=O)O)[C@H](c2ccc(C)cc2)N1S(=O)(=O)c1ccc(C)cc1,inactive: -3.7%
5,O=C(NNC(=O)C1CC=CCC1)c1cccc(Br)c1 (stereo not drawn),inconclusive: 45.5%
6,COc1ccc(C(=O)Nn2c(C)nc3ccccc3c2=O)c(OC)c1,inconclusive: -3.3%
7,COc1ccc(OC)c(C(=O)N/N=C/c2ccccn2)c1,inconclusive: 27.5%
8,Cc1ccc(NC(=O)/C(C#N)=C(\N)C(Cl)(Cl)Cl)nc1,inactive: -3.8%
9,O=C(CC(=O)Nc1cccc(F)c1)Nc1cccc(F)c1,inconclusive: -23%
10,COC(=O)c1ccc(NC(=O)CCCN2C(=O)NC(C)(C)C2=O)cc1,inconclusive: -2.1%
11,CCc1ccc(NC(=O)Cn2cnc([N+](=O)[O-])c2)cc1,inconclusive: -4.5%
12,COC(=O)c1c(-c2ccccc2)c[nH]c1C,inconclusive: 95.6%
13,Cn1c(O)c(C2=NN(C(=O)CCl)C(c3ccccc3)C2)c(=O)n(C)c1=O (stereo not drawn),inconclusive: 33.6%
14,c1ccc2nc(-c3nccs3)ccc2c1,inactive: -2.1%
15,CN(C)c1ccc(Nc2ccc([N+](=O)[O-])cn2)cc1,inconclusive: -13.3%
16,COC(=O)N/N=C/c1cc(C)n(-c2ccc(Br)cc2)c1C,inconclusive: -71.1%
17,CCOCCCNC(=O)C1CCN(Cc2ccc(OCc3ccccc3)c(OC)c2)CC1,inconclusive: 30.7%
18,COCC(=O)N(C)C[C@@H]1Oc2ncc(Br)cc2C(=O)N([C@@H](C)CO)C[C@H]1C,inactive: -10%
19,Cc1ccc(CSC2=Nc3ccccc3C3=NC(=O)CN23)cc1,active: 35.5%
20,N#C/C(=C\c1ccc(-c2ccc(C(=O)O)cc2)o1)C(=O)Nc1ccc(F)cc1,inconclusive: 23.9%
21,CCOC(=O)c1cccc(NC(=O)CSc2nnc(COc3ccccc3)n2CC)c1,inconclusive: -1.4%
22,O=c1c2cc([N+](=O)[O-])ccc2sn1-c1ccccc1,inactive: -2.1%
23,Cc1ccc2nc(-c3ccc(SCC(=O)Nc4cc(C)on4)nc3)[nH]c2c1,inconclusive: 33%
24,O=C(N1CCN(Cc2ccc3c(c2)OCO3)CC1)C(Cl)(Cl)Cl,inconclusive: 18.7%

row,SMILES,inhibition
1,CC(Sc1nnc(COc2ccc(Cl)cc2)n1Cc1ccco1)C(=O)N1CCNC1=O (stereo not drawn),inactive: 6.3%
2,NC(=O)NC(CC(=O)OCC(=O)NC(=O)NCc1ccco1)c1ccc(Cl)cc1 (stereo not drawn),inconclusive: -43.3%
3,Cc1c(O)c(CN2CCCCC2)cc2c3c(c(=O)oc12)CCC3,inactive: -12.4%
4,CCOCCCNC(=S)N(CCO)Cc1cc2cc3c(cc2[nH]c1=O)OCCO3,inconclusive: 4.6%
5,CCOC(=O)C1CCCCN1Cc1ccc(OC)c(OC)c1 (stereo not drawn),inconclusive: 45.2%
6,CS(=O)(=O)N1CCC(C(=O)Nc2cccc(F)c2)CC1,active: 39.4%
7,CCC(=O)N1CCN(c2ccc(Cl)cc2NC(=O)c2ccc3c(c2)OCCO3)CC1,inactive: -1.7%
8,NC(=NCc1ccc2c(c1)OCO2)NC(=O)c1ccccc1,active: 45.3%
9,Cc1ccc(N=Cc2ccc(N(C)C)cc2)cc1C,inactive: -0.5%
10,N#CC1=C(C2CC2)CC(c2ccccc2)C(C#N)=C1N (stereo not drawn),inconclusive: -9.1%
11,COc1cccc(-c2nc3ccccc3c(=O)o2)c1,inactive: -9.2%
12,N#CC(C#N)=C1NC(N)=C(C#N)C(c2ccccc2)=C1C#N,inconclusive: 7.9%
13,CCC(C)c1ccc(N(C(=O)c2ccco2)C(C(=O)NC2CCCC2)c2cccnc2)cc1 (stereo not drawn),inactive: -7.8%
14,COc1ccc(CN2C(=O)CS/C2=N/N=C/c2cccs2)cc1,inconclusive: 5.9%
15,COc1ccc(NC(=O)CSc2ccc3c(c2)OCCO3)cc1OC,inactive: -12%
16,CCOc1ccc(N(CC(=O)Nc2ccccc2OC)S(=O)(=O)c2ccccc2)cc1,inconclusive: 5.4%
17,CNC(=O)c1ccc(-c2ccccc2)s1,inactive: -16.8%
18,CC1CN(C2=NC(=O)/C(=C3/C(=O)N(Cc4ccc(F)cc4)c4ccccc43)S2)CC(C)O1 (stereo not drawn),inconclusive: -22.9%
19,COc1ccc(NS(=O)(=O)c2cc(C(=O)N(C)CCc3ccccn3)ccc2Cl)cc1,inactive: 0%
20,Cc1ccc(NP(=O)(Nc2ccc(C)cc2)Oc2ccccc2)cc1,inactive: -3.3%
21,O=C(NNS(=O)(=O)c1ccc(F)cc1)c1cnn(-c2ccccc2)c1C(F)(F)F,inconclusive: 85.9%
22,COc1cccc(N2[C@@H](CC(=O)O)c3ccc(/C=C/C(=O)O)cc3S2(=O)=O)c1,inactive: -4.2%
23,CCC(CC)C(=O)NN(C(=O)c1ccncc1)C1CC(=O)N(c2ccccc2)C1=O (stereo not drawn),inconclusive: 147%
24,O=C(Nc1ccccc1C(=O)O)c1cccc(NC(=O)c2ccccc2Cl)c1,inconclusive: -7.2%

row,SMILES,inhibition
1,CCCN1Cc2cccc(C(=O)NCCc3ccccc3)c2C1=O,inconclusive: -49.6%
2,Cc1ccc(S(=O)(=O)N2CCN(C(=O)C3COc4ccccc4O3)CC2)cc1C (stereo not drawn),inactive: 4.9%
3,CN1CCN(C(=S)c2ccc(-c3cc(Cl)ccc3Cl)o2)CC1,inconclusive: 49.8%
4,O=[N+]([O-])c1ccc(N2CCN(c3ccc([N+](=O)[O-])cc3CO)CC2)c(CO)c1,inactive: -5%
5,C=CCCCCCCCCC(=O)NNC1CC(=O)N(c2ccccc2)C1=O (stereo not drawn),inconclusive: -5.5%
6,Cc1ccc(SCCSc2nc(N)cc(=O)[nH]2)cc1,inconclusive: -35.7%
7,CC(=NNC(=S)Nc1cccc(Cl)c1)c1ccccn1,active: 62.8%
8,CSCC[C@H](NC(=O)OC(C)(C)C)C(=O)N/N=C/c1cccc2cccnc12,inconclusive: 22.9%
9,COc1ccc(Nc2nccc(-c3ccc(C#N)cc3)n2)cc1,inconclusive: 11.6%
10,CC1(C)Cc2nc3oc4c(=O)n(CC(=O)Nc5cccc(Cl)c5)cnc4c3cc2CO1,inconclusive: 50.7%
11,CCOC(=O)c1csc(NC(=O)CSc2nnnn2-c2ccc(OC)c(OC)c2)n1,inconclusive: 0.4%
12,COc1ccc(Cl)cc1C(=O)NN=C1CCCC1,inconclusive: -5.7%
13,O=C(Nc1ccc(F)cc1)c1cccc2ccccc12,inconclusive: -61.6%
14,CCOc1ccc(C(=O)Nc2ccc(CN3CCOCC3)cc2)cc1Br,inconclusive: -29.7%
15,CSCCC(NC(=O)c1cccc(S(=O)(=O)N2CCOCC2)c1)C(=O)Nc1cccc(C)c1 (stereo not drawn),inactive: -13.3%
16,CCN(CC(=O)Nc1c(F)cccc1F)C(=O)/C=C/c1ccc2ccccc2n1,inconclusive: 6.2%
17,Nc1nc(Cl)cc(Nc2ccccc2Cl)n1,inconclusive: -20.9%
18,O=C(COc1ccccc1[N+](=O)[O-])N/N=C/c1ccc[nH]1,inconclusive: -10.7%
19,O=C(NCC1CCCO1)c1ccc(S(=O)(=O)N2CCCCC2)cc1 (stereo not drawn),inconclusive: -55.6%
20,O=[N+]([O-])c1cccc(CN2CCN(c3ncccn3)CC2)c1,inconclusive: 11%
21,COc1cc(C(F)(F)F)c(C(=O)N(C)c2ccc(Cl)cc2)cn1,inconclusive: 54.2%

# Some of these compounds in order of molar mass, low to high:
row,SMILES,inhibition
13,O=C(Nc1ccc(F)cc1)c1cccc2ccccc12,inconclusive: -61.6%
9,COc1ccc(Nc2nccc(-c3ccc(C#N)cc3)n2)cc1,inconclusive: 11.6%
11,CCOC(=O)c1csc(NC(=O)CSc2nnnn2-c2ccc(OC)c(OC)c2)n1,inconclusive: 0.4%

# Reference: PubChem BioAssay AID588497 (NMMLSC, 2011)
